Data source: PubChem BioAssay AID686943 (Drosophila RNAi Screening Center, 2013)
The screen tested about 23,000 reagents; this is a random part of those that have a named target and a result. 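Extra replicates exist only for a retested subset of genes; insulin dose and duration not given; both raised and lowered dpERK matter.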 Reagents against one gene are numbered here. A plus sign joins genes that one reagent is predicted to hit. Further read-outs or replicates are left out here. Not given: the amount of reagent, the time to read-out.

Screen: 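Fly genes whose loss alters ERK activation after insulin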 (primary screen)
System: Drosophila S2R+ haemocyte-like cells expressing YFP-tagged ERK (Rolled)
Knock-down reagent: long dsRNA against Drosophila genes
Challenge: insulin stimulation versus unstimulated cells; dose and duration not given
Measured: 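Antibody staining for doubly phosphorylated ERK divided by ERK-YFP signal, as plate z-scores, in insulin-treated and untreated cells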
Scale: replicate 1, z-score of dpERK with insulin and replicate 2, z-score of dpERK with insulin: higher = more active ERK per ERK-YFP after insulin

PCB | replicate 1, z-score of dpERK with insulin: -0.18; replicate 2, z-score of dpERK with insulin: -0.16
alpha-Man-IIa | replicate 1, z-score of dpERK with insulin: -0.18; replicate 2, z-score of dpERK with insulin: 0.13
CG32834 | replicate 1, z-score of dpERK with insulin: 0.36; replicate 2, z-score of dpERK with insulin: -0.15
nullo | replicate 1, z-score of dpERK with insulin: 0.58; replicate 2, z-score of dpERK with insulin: 0.01
FASN1 | replicate 1, z-score of dpERK with insulin: 2; replicate 2, z-score of dpERK with insulin: 2.19
Obp50c + Obp50b | replicate 1, z-score of dpERK with insulin: -0.27; replicate 2, z-score of dpERK with insulin: 0.32
CG8087 | replicate 1, z-score of dpERK with insulin: 0.68; replicate 2, z-score of dpERK with insulin: 0.4
NO66 | replicate 1, z-score of dpERK with insulin: -0.39; replicate 2, z-score of dpERK with insulin: -0.17
CG13707 | replicate 1, z-score of dpERK with insulin: 0.21; replicate 2, z-score of dpERK with insulin: 0.33
CG4066 | replicate 1, z-score of dpERK with insulin: 0.43; replicate 2, z-score of dpERK with insulin: 0.82
Vps8 | replicate 1, z-score of dpERK with insulin: -0.3; replicate 2, z-score of dpERK with insulin: 0.38
Or7a | replicate 1, z-score of dpERK with insulin: 0.23; replicate 2, z-score of dpERK with insulin: -0.54
CG30377 #1 | replicate 1, z-score of dpERK with insulin: 0.39; replicate 2, z-score of dpERK with insulin: 0.86
CG30377 #2 | replicate 1, z-score of dpERK with insulin: -0.57; replicate 2, z-score of dpERK with insulin: -0.04
Spn77Bb + Spn77Bc #1 | replicate 1, z-score of dpERK with insulin: 0.19; replicate 2, z-score of dpERK with insulin: 0.41
Spn77Bb + Spn77Bc #2 | replicate 1, z-score of dpERK with insulin: 1; replicate 2, z-score of dpERK with insulin: 0.4
TwdlW | replicate 1, z-score of dpERK with insulin: 0.02; replicate 2, z-score of dpERK with insulin: 0.51
su(sable) | replicate 1, z-score of dpERK with insulin: -0.67; replicate 2, z-score of dpERK with insulin: 1.02
Ak3 | replicate 1, z-score of dpERK with insulin: -0.11; replicate 2, z-score of dpERK with insulin: -0.03
CG33506 | replicate 1, z-score of dpERK with insulin: 0.52; replicate 2, z-score of dpERK with insulin: 1.13
CG17807 | replicate 1, z-score of dpERK with insulin: -0.02; replicate 2, z-score of dpERK with insulin: -0.1
CG12659 | replicate 1, z-score of dpERK with insulin: -0.21; replicate 2, z-score of dpERK with insulin: 0.85
CG9981 | replicate 1, z-score of dpERK with insulin: 0.19; replicate 2, z-score of dpERK with insulin: 0.61
E(spl)malpha-BFM | replicate 1, z-score of dpERK with insulin: -1.31; replicate 2, z-score of dpERK with insulin: -0.15
Cpr49Ac | replicate 1, z-score of dpERK with insulin: 0.75; replicate 2, z-score of dpERK with insulin: 0.61
CG6665 | replicate 1, z-score of dpERK with insulin: 0.09; replicate 2, z-score of dpERK with insulin: 0.24
Osi23 | replicate 1, z-score of dpERK with insulin: 0.19; replicate 2, z-score of dpERK with insulin: 0.07
CG32264 #1 | replicate 1, z-score of dpERK with insulin: 0.47; replicate 2, z-score of dpERK with insulin: -3.31
CG32264 #2 | replicate 1, z-score of dpERK with insulin: 0.27; replicate 2, z-score of dpERK with insulin: -0.35
CG32264 #3 | replicate 1, z-score of dpERK with insulin: 0.05; replicate 2, z-score of dpERK with insulin: -0.86
CG32264 #4 | replicate 1, z-score of dpERK with insulin: 1.08; replicate 2, z-score of dpERK with insulin: 1.61
CG32264 #5 | replicate 1, z-score of dpERK with insulin: -1.94; replicate 2, z-score of dpERK with insulin: -2.72

A portion from the list above, as a working copy:
Ak3 | replicate 1, z-score of dpERK with insulin: -0.11; replicate 2, z-score of dpERK with insulin: -0.03
CG33506 | replicate 1, z-score of dpERK with insulin: 0.52; replicate 2, z-score of dpERK with insulin: 1.13
CG17807 | replicate 1, z-score of dpERK with insulin: -0.02; replicate 2, z-score of dpERK with insulin: -0.1
CG12659 | replicate 1, z-score of dpERK with insulin: -0.21; replicate 2, z-score of dpERK with insulin: 0.85
CG9981 | replicate 1, z-score of dpERK with insulin: 0.19; replicate 2, z-score of dpERK with insulin: 0.61
